Library screening results

A: 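Assay on Mycobacterium tuberculosis, filed only as a heat shock assay from Cornell; the read-out is not stated. The concentration is filed as 10 mM, unlikely as a test dose, so the dose is not known. Higher reads as stronger inhibition (inferred: compounds with an IC50 in retests scored well above the rest). About 69,000 compounds were tested under these conditions; 1.4% (about 930) showed 50% or more at least once.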
B: 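Whole-cell assay for inhibitors of Mycobacterium tuberculosis growth, labelled Cornell in the record; the read-out is not stated. The concentration is filed as 10 mM, unlikely as a test dose, so the dose is not known. The record gives no direction; compounds strong in two other growth screens of this library score well above the rest, so higher reads as stronger inhibition. Of about 53,000 compounds tested this way, about 900 (1.7%) reached 50% or more in at least one test.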

Values are the deposited “Percent Effect”, in %. How 0% and 100% were set is not recorded. Most values in the screen are low, and negative values occur. The compounds are a random part of those screened. A dash means the value is not listed here; it may have been measured.

compound,A,B
CCn1c(SC)nnc1C1CCN(C(=O)N2CCCC2)CC1,-15.18%,-16.63%
Cc1nn(C)c(C)c1C1CCCN1CC(=O)N(C)c1nccs1 (stereo not given),14.82%,-41.97%
[H][C@@]12CCN(C(=O)NC3CC3)[C@]1([H])CCC(=O)N2Cc1csc(C)n1,1.953%,-23.26%
C[C@@H]1CN(C(=O)c2ccsc2)C[C@]12CCN(c1ccsc1)C2=O,-217.3%,-
COc1ncccc1NC(=O)N1CCOCC1C (stereo not given),-6.952%,17.4%
c1ccc(CN2CCC(CCNc3ncnc4c3CCNCC4)C2)cc1 (stereo not given),-14.15%,21.24%
Cc1cc(C(=O)N2CCCCC2C)ccc1NCCCO (stereo not given),8.386%,-31.21%
CCn1ccnc1CN1CCN(c2cc(C)nc(C3CCCN3)c2)CC1.Cl (stereo not given),-8.62%,11.61%
O=C(NCCc1cc(=O)[nH]cn1)c1[nH]nc2c1CCCC2,9.341%,-22.59%
Cn1ccnc1C(O)(CCNCc1ccco1)C(F)(F)F (stereo not given),-17.73%,2.844%
CCCC1(CO)CCCN(C(=O)CCCn2nc(C)cc2C)C1 (stereo not given),-2.18%,-38.58%
O=C(O)C(F)(F)F.[H][C@@]12CCN(CC(=O)NC)C[C@]1([H])CN(C(=O)c1cc[nH]n1)C2,6.516%,-
COc1ccc2cc(-c3n[nH]cc3CN3CCSCC3)ccc2c1,-5.532%,4.686%
Cc1c(C(=O)NC2CCCOC2)nnn1-c1ccc(Cl)cc1F (stereo not given),-140%,-
Fc1ccc(OCC2CCCO2)c(NCc2noc(C3CC3)n2)c1 (stereo not given),2.045%,31.14%
CNC(=O)COC(=O)c1ccn(-c2ccc(Cl)c(Cl)c2)n1,-0.6407%,-
Cc1cc(N(C)C)nc(C2COCCN2Cc2cc(C)on2)n1 (stereo not given),-5.117%,-0.8689%
COc1ccnc(N2CCN(C(=O)Cc3csc(C)n3)CC2)n1,-5.46%,-
COCC[C@]1(O)CCN(c2ncc(Cl)cc2F)C[C@H]1C,-4.975%,-1.612%
Cc1ncc2c(n1)CCCC2NC(=O)c1cnn(Cc2ccccc2)c1 (stereo not given),-15.56%,3.504%
Cc1nc[nH]c1CN1CCOC(c2ccc(Cl)c(Cl)c2)C1 (stereo not given),-13.81%,23.14%
c1ncc2c(n1)CN(Cc1nc(-c3ccoc3)no1)CC2,5.396%,-
Cc1ccc(CNC2(Cc3cc(-c4cccc(O)c4)on3)COC2)o1,-1.126%,-2.983%
Cc1ccc(S(=O)(=O)NC(=O)COc2cccc(C#N)c2)c(C)c1,-14.8%,-34.67%
Cc1noc(C(C)SCc2ccccn2)n1 (stereo not given),6.334%,11.88%
CCC1(CO)CCCN(c2ncccc2C#N)C1 (stereo not given),-15.39%,-
O=C1CCC2(CCCN(C(=O)c3ccoc3)C2)CN1CCc1c[nH]cn1 (stereo not given),-14.94%,-1.583%
O=C(O)C(F)(F)F.c1nc2c(c(C3CC3)n1)CCN(Cc1ccc3c(c1)OCO3)CC2,-31.13%,25.07%
CC(C)N(Cc1ccccn1)S(=O)(=O)N1CCCC1c1ccco1 (stereo not given),5.9%,-
Cc1nc(CN2CCN(C(=O)COc3c(C)ccc(C)c3C)CC2)no1,-7.313%,-
CC(NC(=O)NCc1cc(Br)cs1)c1ccccn1 (stereo not given),-24.91%,-
[H][C@]12CC[C@]([H])(CN(C(=O)N(C)C)C1)N(C(=O)c1ccccc1SC)C2,-21.9%,-8.023%
CCc1nc(CNC(C)Cn2cccn2)cs1 (stereo not given),11.1%,8.565%
Cc1nc(NCc2noc(C3CCCO3)n2)c2sccc2n1 (stereo not given),-5.869%,-14.87%
COCCN(Cc1ccoc1)C(=O)c1c(F)cccc1F,-12.3%,-
O=C(O)C(F)(F)F.O=C(O)C(F)(F)F.[H][C@]12COC[C@@H](N(C)C)[C@@]1([H])CN(Cc1ccc3c(c1)OCO3)C2,-20.29%,24.72%
CCN1CCN(CCCNC(=O)NC(C)c2nncn2C)CC1 (stereo not given),-2.049%,-
O=C(Nc1nncs1)N1CCC(CCc2ccc(O)cc2)CC1,0.9643%,5.954%
Cc1ccc(S(=O)(=O)NC(C)(C)CN)c(F)c1.Cl,-12.07%,20.73%
Cn1cnc2c1CCN(Cc1cccc(C(=O)N3CCCCC3)c1)C2,19.15%,-
Cc1noc(-c2cccnc2N2CCN(c3cnn(C)c3)CC2)n1,-4.588%,5.368%
CN(C)C(=O)Cc1ccccc1NCc1noc(-c2ccccc2)n1,12.08%,-1.912%
NC(=O)CN1CCC(C(=O)NCCn2cc(Cl)cn2)CC1,-1.919%,-68.52%
O=C(O)C(F)(F)F.O=C(O)C(F)(F)F.[H][C@]12CN(C)C[C@@]1(C(=O)O)CCCN(Cc1ccsc1)C2,-38.54%,8.356%
N#CC(NC(=O)CCCOc1cccnc1)c1ccc(F)cc1F (stereo not given),-24.94%,9.792%
COCc1cccc(NC(=O)NCCCN(C)S(C)(=O)=O)c1,-17.07%,-4.069%
C=C(C)CN(CC)Cc1nc(CC)no1,1.25%,-5.052%
O=C(CCNS(=O)(=O)c1ccc(Cl)cc1)NCc1ccoc1,-14.75%,-24.63%
Cc1cc(C)c2c(c1)C1(CC(=O)Nc3c1cnn3C(C)C)C(=O)N2 (stereo not given),12.09%,-
Cn1cc(C2CCCN2Cc2cscn2)cn1 (stereo not given),1.401%,-

Repeated from the top, 3 entries:

| compound | A | B |
|---|---|---|
| `CCn1c(SC)nnc1C1CCN(C(=O)N2CCCC2)CC1` | -15.18% | -16.63% |
| `Cc1nn(C)c(C)c1C1CCCN1CC(=O)N(C)c1nccs1` (stereo not given) | 14.82% | -41.97% |
| `[H][C@@]12CCN(C(=O)NC3CC3)[C@]1([H])CCC(=O)N2Cc1csc(C)n1` | 1.953% | -23.26% |

The values are deposited in ChEMBL (CHEMBL3988442, “University of Dundee, Small-Polar-MMV Screening Library” (2021)).